Measurements as given in US20180105596A1 (ELSALYS BIOTECH, published 2018).
These are yes or no findings as the source states them, for the method shown. Some entries that bind do so weakly or less than the wild type.

Target: T1, human recombinant full-length Tyro3 protein (OriGene TP308260) (human) (UniProt Q06418)
T1 sequence: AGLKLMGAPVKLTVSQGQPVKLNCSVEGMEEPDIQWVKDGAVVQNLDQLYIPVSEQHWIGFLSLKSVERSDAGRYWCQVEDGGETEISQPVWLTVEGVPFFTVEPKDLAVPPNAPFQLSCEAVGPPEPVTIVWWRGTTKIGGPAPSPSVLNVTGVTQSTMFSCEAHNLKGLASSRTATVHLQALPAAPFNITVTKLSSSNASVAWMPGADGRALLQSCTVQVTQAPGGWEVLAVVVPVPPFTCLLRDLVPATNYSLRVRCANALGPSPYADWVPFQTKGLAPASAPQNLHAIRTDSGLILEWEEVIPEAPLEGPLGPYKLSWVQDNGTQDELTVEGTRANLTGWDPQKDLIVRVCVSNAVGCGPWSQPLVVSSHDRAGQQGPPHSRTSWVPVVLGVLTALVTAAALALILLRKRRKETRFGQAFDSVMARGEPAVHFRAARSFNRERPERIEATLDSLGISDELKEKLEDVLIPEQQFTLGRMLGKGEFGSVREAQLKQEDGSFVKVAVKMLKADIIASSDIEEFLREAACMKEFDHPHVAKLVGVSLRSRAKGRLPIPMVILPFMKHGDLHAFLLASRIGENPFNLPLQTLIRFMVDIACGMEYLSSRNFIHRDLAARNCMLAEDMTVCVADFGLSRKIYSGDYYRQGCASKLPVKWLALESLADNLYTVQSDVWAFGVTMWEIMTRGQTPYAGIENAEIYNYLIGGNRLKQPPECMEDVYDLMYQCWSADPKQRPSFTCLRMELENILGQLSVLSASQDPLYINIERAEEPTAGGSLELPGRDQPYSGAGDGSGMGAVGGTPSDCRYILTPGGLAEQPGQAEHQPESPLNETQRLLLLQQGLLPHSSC
Test: ELISA, full-length Tyro3 coated 2.5 µg/mL, biotinylated GAS6 2.5 µg/mL, streptavidin-HRP

B1: biotinylated GAS6 (ligand, UniProt Q14393 49-678, looked up)
chain: AFQVFEEAKQGHLERECVEELCSREEAREVFENDPETDYFYPRYLDCINKYGSPYTKNSGFATCVQNLPDQCTPNPCDRKGTQACQDLMGNFFCLCKAGWGGRLCDKDVNECSQENGGCLQICHNKPGSFHCSCHSGFELSSDGRTCQDIDECADSEACGEARCKNLPGSYSCLCDEGFAYSSQEKACRDVDECLQGRCEQVCVNSPGSYTCHCDGRGGLKLSQDMDTCEDILPCVPFSVAKSVKSLYLGRMFSGTPVIRLRFKRLQPTRLVAEFDFRTFDPEGILLFAGGHQDSTWIVLALRAGRLELQLRYNGVGRVTSSGPVINHGMWQTISVEELARNLVIKVNRDAVMKIAVAGDLFQPERGLYHLNLTVGGIPFHEKDLVQPINPRLDGCMRSWNWLNGEDTTIQETVKVNTRMQCFSVTERGSFYPGSGFAFYSLDYMRTPLDVGTESTWEVEVVAHIRPAADTGVLFALWAPDLRAVPLSVALVDYHSTKKLKKQLVVLAVEHTALALMEIKVCDGQEHVVTVSLRDGEATLEVDGTRGQSEVSAAQLQERLAVLERHLRSPVLTFAGGLPDVPVTSAPVTAFYRGCMTLEVNRRLLDLDEAAYKHSDITAHSCPPVEPAAA
modifications: biotinylated
binding: binds
